Earlier results in patent publication EP4104818A1, “OPHTHALMIC COMPOSITION COMPRISING XANTHOHUMOL” (Skeye Pharma GbR, priority 2021, dated 2022).
The name of at least one read-out is uncertain.

Details: "It is believed"; no experiment described; cited from earlier work

In the case of `COc1cc(O)c(CC=C(C)C)c(O)c1C(=O)/C=C/c1ccc(O)cc1` [xanthohumol, 1-[2,4-Dihydroxy-6-methoxy-3-(3-methyl-but-2-enyl)-phenyl]-3-(4-hydroxyphenyl)-propenon], the first pka is given as “about 7”.
